Here are results for 3 molecules from paper PMC3936742 (Nucleic Acids Research, 2013).

These are yes or no findings as the source states them, for the method shown. Where a sequence is shown, tags or fusion partners need not be part of it.

Common to all, as to experiment: SEC; Superdex 75 HR, 0.7 ml/min, TBS buffer with 5 mM DTT; for the mix each protein at 5 µM in 100 µl TBS with 5 mM DTT and 3% glycerol, 2 h at room temperature; UV 280 nm, SDS-PAGE of fractions; both purified
In assay [1] the target is Flag-MnmC(o), C-terminal oxidoreductase domain of MnmC (amino acids 250-668) (E. coli) (UniProt P77182).
The target in assay [2] is Flag-MnmC(m), N-terminal methyltransferase domain of MnmC (amino acids 1-250) (E. coli) (UniProt P77182).
In assay [3] the target is Flag-MnmC, full MnmC protein (E. coli) (UniProt P77182).

B1: Flag-MnmC(o), C-terminal oxidoreductase domain of MnmC (amino acids 250-668) (domain or fragment, UniProt P77182 250-668)
chain: LPCSAPWFNRTGSSKREAAIIGGGIASALLSLALLRRGWQVTLYCADEAPALGASGNRQGALYPLLSKHDEALNRFFSNAFTFARRFYDQLPVKFDHDWCGVTQLGWDEKSQHKIAQMLSMDLPAELAVAVEANAVEQITGVATNCSGITYPQGGWLCPAELTRNVLELAQQQGLQIYYQYQLQNLSRKDDCWLLNFAGDQQATHSVVVLANGHQISRFSQTSTLPVYSVAGQVSHIPTTPELAELKQVLCYDGYLTPQNPANQHHCIGASYHRGSEDTAYSEDDQQQNRQRLIDCFPQAQWAKEVDVSDKEARCGVRCATRDHLPMVGNVPDYEATLVEYASLAEQKDEAVSAPVFDDLFMFAALGSRGLCSAPLCAEILAAQMSDEPIPMDASTLAALNPNRLWVRKLLKGKAVKAG
Consider B1, for which, in assay [1], the binding entry is “no binding”.

B2: His-MnmC(m), MnmC(m) domain fused at its N-terminal end to a 6x-His-epitope (domain or fragment, E. coli, UniProt P77182 1-250, looked up)
chain: MKHYSIQPANLEFNAEGTPVSRDFDDVYFSNDNGLEETRYVFLGGNQLEVRFPEHPHPLFVVAESGFGTGLNFLTLWQAFDQFREAHPQAQLQRLHFISFEKFPLTRADLALAHQHWPELAPWAEQLQAQWPMPLPGCHRLLLDEGRVTLDLWFGDINELTSQLDDSLNQKVDAWFLDGFAPAKNPDMWTQNLFNAMARLARPGGTLATFTSAGFVRRGLQDAGFTMQKRKGFGRKREMLCGVMEQTLPL
For B2, the binding entry in assay [2] is “no binding”.

B3: Flag-MnmC, full MnmC protein (enzyme, UniProt P77182 1-668)
chain: MKHYSIQPANLEFNAEGTPVSRDFDDVYFSNDNGLEETRYVFLGGNQLEVRFPEHPHPLFVVAESGFGTGLNFLTLWQAFDQFREAHPQAQLQRLHFISFEKFPLTRADLALAHQHWPELAPWAEQLQAQWPMPLPGCHRLLLDEGRVTLDLWFGDINELTSQLDDSLNQKVDAWFLDGFAPAKNPDMWTQNLFNAMARLARPGGTLATFTSAGFVRRGLQDAGFTMQKRKGFGRKREMLCGVMEQTLPLPCSAPWFNRTGSSKREAAIIGGGIASALLSLALLRRGWQVTLYCADEAPALGASGNRQGALYPLLSKHDEALNRFFSNAFTFARRFYDQLPVKFDHDWCGVTQLGWDEKSQHKIAQMLSMDLPAELAVAVEANAVEQITGVATNCSGITYPQGGWLCPAELTRNVLELAQQQGLQIYYQYQLQNLSRKDDCWLLNFAGDQQATHSVVVLANGHQISRFSQTSTLPVYSVAGQVSHIPTTPELAELKQVLCYDGYLTPQNPANQHHCIGASYHRGSEDTAYSEDDQQQNRQRLIDCFPQAQWAKEVDVSDKEARCGVRCATRDHLPMVGNVPDYEATLVEYASLAEQKDEAVSAPVFDDLFMFAALGSRGLCSAPLCAEILAAQMSDEPIPMDASTLAALNPNRLWVRKLLKGKAVKAG
For B3, in assay [3], the binding entry is “no binding”.
